From PubChem BioAssay AID1347075 (National Center for Advancing Translational Sciences (NCATS), 2019)
“And” between values parts separate entries of the source, which are not always exact repeats. Equal values may be shown once. In all, about 400,000 compounds went through this assay and about 5,500 (1.4%) were called active. Inconclusive results, whose numbers are uncertain, are shown with a selection of clear calls. Calls follow the shape of the dose curve; as a rule, active = well fitted cell-killing curve with a large enough effect; inconclusive = small, poorly fitted or top-dose-only effect, or effect the other way; inactive = flat fitted curve, though single readings scatter. Potencies beside an inconclusive call are fits to weak or partial responses and may not hold up.

test: qHTS assay for MDR1-selective chemotherapeutics: Primary screen using the parental adenocarcinoma cell KB-3-1; settings: KB-3-1 viability, CellTiter-Glo ATP luminescence, 72 h; activity change, negative = cytotoxic: at 46.1 µM (top of the series); also: nearly all actives have a fitted effect of over 60% in size
In short: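 Viability of parental KB-3-1 cells, measured by CellTiter-Glo luminescence, followed a 72 h incubation at 37 °C with pinned compounds in phenol-red-free DMEM containing 10% FBS.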
% is scaled to controls: 0 for no effect and ±100 for the full control effect; potency is read from the fitted curve at half-maximal effect.

**Q.** For `CC(=O)c1cccc(NS(=O)(=O)c2ccc3c(c2)oc(=O)n3C)c1`, which Potency is on record?
**A.** The Potency was inconclusive: 16.4 µM [cytotoxic, single point].

**Q.** With `CCOC(=O)C1=CCN(S(=O)(=O)c2ccc(Br)cc2)C1c1ccccc1` (centres undefined) as the compound, how does the Potency read?
**A.** Its Potency is inconclusive: 29.1 µM [cytotoxic, single point].

**Q.** Which Potency does the source give for `COCCCNC(=O)N1[C@H](c2cccs2)[C@@H](C)C(=O)[C@@H](C)[C@@H]1c1cccs1` here?
**A.** The Potency was “inactive”.

**Q.** Which Potency does the source give for `CCNc1nc(NCC)nc(-n2cc(C(=O)c3cc(Cl)ccc3O)cn2)n1` here?
**A.** Its Potency is inconclusive: 18.4 µM [cytotoxic, single point].

**Q.** With `COc1cccc(C(C)(O)c2nc(-c3ccc4ccccc4c3)cs2)c1` (centres undefined) as the compound, how does the Potency read?
**A.** Its Potency is inconclusive: 29.1 µM [cytotoxic, single point].

**Q.** Which Potency does the source give for `Cc1ccc(O)c(NC(=O)c2noc3c2CCCC3)c1` here?
**A.** Its Potency is inconclusive: 23.1 µM [cytotoxic, partial curve, poor fit].

**Q.** Which Potency does the source give for `CCOc1ccc(N2CCc3c(C)nc(SC)nc32)cc1` here?
**A.** The Potency was inconclusive: 29.1 µM [cytotoxic, single point].

**Q.** With `Cn1c(CC(=O)Nc2ccc(Cl)c(Cl)c2)nnc1SCC(=O)NCc1ccccc1` as the compound, how does the Potency read?
**A.** The Potency was inconclusive: 20.6 µM [cytotoxic, single point].

**Q.** Which activity change, negative = cytotoxic does the source give for `c1ccc2c(N=NN3CCCCC3)ccnc2c1` here?
**A.** Its activity change, negative = cytotoxic is inconclusive: -27.8%.

**Q.** For `Cc1ccc2c(c1)N(S(=O)(=O)c1cc(-c3onc(C)c3C)ccc1C)CCO2`, which Potency is on record?
**A.** Its Potency is active: 25.9 µM and active: 23.1 µM.

**Q.** For `O=C(CNc1cccc([N+](=O)[O-])c1)N/N=C/c1ccc([N+](=O)[O-])o1`, which Potency is on record?
**A.** The Potency was inconclusive: 20.6 µM [cytotoxic, single point].

**Q.** Which Potency does the source give for `O=C(Nc1ccc(F)c(Cl)c1)C1CCN(S(=O)(=O)c2ccc3[nH]c(=O)ccc3c2)CC1` here?
**A.** The Potency was “inactive”.

**Q.** With `COc1ccc(-c2cc3nc(-c4ccccc4)cc(N4CCN(C(=O)c5ccoc5)CC4)n3n2)cc1` as the compound, how does the Potency read?
**A.** Its Potency is inconclusive: 23.1 µM [cytotoxic, single point].

**Q.** With `CCOc1ccc(/C=C/c2cc[n+](C)c3ccccc23)cc1OCC` as the compound, how does the Potency read?
**A.** The Potency was inconclusive: 29.1 µM [rising, single point].

**Q.** Which Potency does the source give for `C/C(=C\c1ccccc1)C(=O)NCCN1CCOCC1` here?
**A.** The Potency was “inactive”.

**Q.** Which Potency does the source give for `Cc1csc(-c2cnn(-c3ccccc3)c2NC(=O)c2ccc(C(F)(F)F)cc2)n1` here?
**A.** The Potency was inconclusive: 20.6 µM [cytotoxic, partial curve].

**Q.** For `O=C(CCNC(=O)c1ccc(Cl)cc1)NC1CCCc2ccccc21` (centres undefined), which Potency is on record?
**A.** Its Potency is active: 7.31 µM.

**Q.** For `COCCn1c(C)cc(C2=NNC(=Nc3ccc(Cl)cc3Cl)SC2)c1C`, which Potency is on record?
**A.** Its Potency is “inactive”.

**Q.** For `O=C1C=C(c2ccc3ccccc3c2)C[C@@H](c2ccc(Cl)cc2)C1`, which Potency is on record?
**A.** The Potency was inconclusive: 23.1 µM [cytotoxic, single point].
